The values that follow come from publication PMC7862700.

Some of the results follow. The source does not settle which construct or isoform was used.

The target of this experiment is T1, ELF2 (UniProt Q15723).
T1 sequence: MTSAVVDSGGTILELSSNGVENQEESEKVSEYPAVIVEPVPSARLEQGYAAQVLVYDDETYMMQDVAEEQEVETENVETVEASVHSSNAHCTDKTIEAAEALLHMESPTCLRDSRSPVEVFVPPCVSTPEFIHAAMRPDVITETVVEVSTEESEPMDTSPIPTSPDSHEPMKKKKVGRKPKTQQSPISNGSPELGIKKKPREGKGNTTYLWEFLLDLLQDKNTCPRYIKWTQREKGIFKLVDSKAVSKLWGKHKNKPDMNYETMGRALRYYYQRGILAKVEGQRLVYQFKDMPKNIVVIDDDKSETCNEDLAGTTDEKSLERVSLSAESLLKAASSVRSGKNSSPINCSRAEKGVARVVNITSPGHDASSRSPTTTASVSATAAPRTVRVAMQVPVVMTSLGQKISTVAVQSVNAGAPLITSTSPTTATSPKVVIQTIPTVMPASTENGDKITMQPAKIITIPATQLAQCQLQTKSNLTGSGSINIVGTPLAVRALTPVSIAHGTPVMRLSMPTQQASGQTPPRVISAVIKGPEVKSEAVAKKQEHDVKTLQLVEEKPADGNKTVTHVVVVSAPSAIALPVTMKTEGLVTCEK
The experiment in a line: DAPPL (digital affinity profiling via proximity ligation, sequencing). To be noted: 10 mM Tris-HCl pH 7.5, 50 mM NaCl, 1 mM DTT, 4% glycerol, room temperature, 30 min; GST-TFs on glutathione beads, 16-mer random dsDNA library, 0.1% …; high values mean tight binding; double strand, one strand shown; scale: fold enrichment (6-mer frequency, TF over GST control).
With CCAATG, the binding signal turned out to be 1.03.
Turning to TAACCC, the binding signal turned out to be 1.31.
Under TACCCA stands 1.04; under TGTGAC, 1.08; under CGTCCG, 1.43.
The same measure for CGCTAC: 1.19; for GGAAGC: 2.32.
Under CTGGTT stands 1.41.
Turning to TATGAA, the binding signal stood at 1.11.
Sequence ACTCTA showed a binding signal of 1.38.
AGTTCC returned a binding signal of 2.9.
The same measure for CCATGC: 1.02; for CAAAAT: 1.17; for CACTGG: 1.01.
For the sequence TTAACG, the binding signal is 1.12.
Turning to GCGCTC, the binding signal worked out at 1.09.
Take ACGCTG: the binding signal was determined as 1.09.
The same measure for GGCTCC: 1.28; for CCATTC: 1.05.
CCTACG came in with a binding signal of 1.39.
In the case of CTCTGG, the binding signal amounted to 1.23.
The same measure for GCTGAT: 1.11; for TTCTCC: 1.52.
Under GGTCCC stands 1.09; under AAAAAG, 1.2.
Under CGAAAA stands 1.05.
Regarding CCGCCC, the binding signal turned out to be 1.26.
With TGCCTG, the binding signal amounted to 1.14.
The same measure for GTCACA: 1.05; for GAACAC: 1.14; for CCGCCT: 1.67.
As to ATATTA, the binding signal worked out at 1.14.
For CTGGAT, the binding signal stood at 1.29.
Under AGCTCC stands 1.25; under TCCAAT, 1.13; under GGAATT, 1.35.
Under ATCTAG stands 1.07; under TCTTAG, 1.15; under GTTACG, 0.974.
